Data as given in PubChem BioAssay AID1259254 (NCATS, 2017)
Test: 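Genome-wide screen for genes that prevent DNA re-replication in cancer cells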 (primary screen). System: human HCT116 colorectal cancer cells. Reagent: single siRNA against human genes. Timing: 3 days. Read-out: 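Nuclei stained with Hoechst and imaged; cell-cycle phase assigned by DNA content; G2 share scaled per plate, non-targeting siRNA 0%, GMNN siRNA 100%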. Reading the numbers: G2 robust z-score and G2 cells, % of GMNN control: higher = more G2 cells, more excess DNA replication; raw share of cells in G2: higher = larger share of cells with G2 DNA content. Rule for the call: 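An siRNA counts as active if its G2 robust z-score lies at least 5 MADs above the screen median; here such calls match roughly 38% of GMNN control or more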.
The whole screen tested about 59,000 reagents; this is an unselected part. In the full data, about 1,550 (2.6%) were called active. 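G2 share is only a proxy for re-replication; each gene was hit by three separate siRNAs, and active genes were retested.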 Raw values are not corrected between plates. Reagents against one gene are numbered here. Not stated in the record: the amount of reagent.

no.	target gene	reagent no.	G2 robust z-score	G2 cells, % of GMNN control	raw share of cells in G2 (%)	call
1	VAMP2	1	2.32	19.3	13.7	inactive
2	VAMP2	2	-0.81	-2.73	2.81	inactive
3	VAMP2	3	1.21	11.5	7.41	inactive
4	RGS7BP	1	0.456	6.18	6.06	inactive
5	RGS7BP	2	-0.0154	2.86	4.65	inactive
6	RGS7BP	3	-0.565	-1.01	4.37	inactive
7	INS	1	0.683	7.77	8.64	inactive
8	INS	2	1.85	16	10.1	inactive
9	INS	3	2.81	22.7	13.3	inactive
10	DLGAP3	1	-0.00383	2.94	5.51	inactive
11	DLGAP3	2	4.46	34.4	20.9	inactive
12	DLGAP3	3	0.642	7.48	5.4	inactive
13	DAP3	1	-0.958	-3.77	3.46	inactive
14	DAP3	2	0.018	3.09	5.12	inactive
15	DAP3	3	1.08	10.6	7.09	inactive
16	ITPKC	1	-1.14	-5.09	4.01	inactive
17	ITPKC	2	-1.23	-5.7	3.12	inactive
18	ITPKC	3	-0.461	-0.274	3.59	inactive
19	NAV3	1	-0.0473	2.63	5.2	inactive
20	NAV3	2	0.281	4.94	4.55	inactive
21	NAV3	3	0.022	3.12	3.91	inactive
22	GALP	1	3.15	25.1	14.7	inactive
23	GALP	2	3.67	28.8	12	inactive
24	GALP	3	1.64	14.5	7.53	inactive
25	CDC42BPA	1	1.55	13.9	9.9	inactive
26	CDC42BPA	2	0.759	8.31	8.21	inactive
27	CDC42BPA	3	0.897	9.28	6.65	inactive
28	FDPS	1	-0.755	-2.34	4.39	inactive
29	FDPS	2	-0.323	0.695	5.53	inactive
30	FDPS	3	-0.961	-3.8	2.31	inactive
31	CA2	1	-0.713	-2.05	4.02	inactive
32	CA2	2	-0.211	1.49	5.6	inactive
33	CA2	3	-0.622	-1.41	3.47	inactive
34	ZBTB14	1	0.322	5.23	5.27	inactive
35	ZBTB14	2	-0.208	1.5	6.66	inactive
36	ZBTB14	3	3.78	29.6	15.7	inactive
37	B3GNT5	1	0.0764	3.5	6.08	inactive
38	B3GNT5	2	0.197	4.35	7.24	inactive
39	B3GNT5	3	3.63	28.5	14.5	inactive
40	GATAD1	1	1.08	10.6	6.53	inactive
41	GATAD1	2	0.669	7.67	9.38	inactive
42	GATAD1	3	0.901	9.3	6.56	inactive
43	PDPN	1	7.93	58.8	28	active
44	PDPN	2	-0.449	-0.191	4.06	inactive
45	PDPN	3	1.17	11.2	7.37	inactive
46	ERO1A	1	2.17	18.2	14.4	inactive
47	ERO1A	2	1.77	15.4	9.32	inactive
48	ERO1A	3	0.1	3.67	5.19	inactive
49	AEBP1	1	0.193	4.32	7.07	inactive
50	AEBP1	2	0.496	6.46	7.19	inactive
51	AEBP1	3	-0.273	1.05	4.3	inactive
52	OR2Z1	1	-0.311	0.782	3.93	inactive
53	OR2Z1	2	3.8	29.7	14.5	inactive
54	OR2Z1	3	-0.433	-0.0783	3.24	inactive
55	ENTPD2	1	0.0831	3.55	5.95	inactive
56	ENTPD2	2	2.15	18.1	9.74	inactive
57	ENTPD2	3	3.89	30.3	12.6	inactive
58	SPDYE4	1	-0.378	0.307	4.77	inactive
59	SPDYE4	2	1.05	10.4	7.33	inactive
60	SPDYE4	3	-0.228	1.36	4	inactive
61	CNTNAP4	1	1.69	14.9	11.4	inactive
62	CNTNAP4	2	2.82	22.8	13.1	inactive
63	CNTNAP4	3	1.24	11.7	11.1	inactive
64	ABRAXAS1	1	0.203	4.4	5.57	inactive
65	ABRAXAS1	2	0.312	5.16	4.99	inactive
66	ABRAXAS1	3	-0.527	-0.743	2.18	inactive
67	HOXA9	1	-1.25	-5.82	3.47	inactive
68	HOXA9	2	1.04	10.3	8.79	inactive
69	HOXA9	3	0.00974	3.04	5.31	inactive
70	PLOD3	1	3.71	29.1	17.8	inactive
71	PLOD3	2	3.08	24.6	13.9	inactive
72	PLOD3	3	3.14	25	13.7	inactive
73	TPPP3	1	-0.87	-3.15	2.15	inactive
74	TPPP3	2	-0.752	-2.32	2.77	inactive
75	TPPP3	3	0.675	7.72	7.52	inactive
76	SPON2	1	-0.843	-2.96	2.54	inactive
77	SPON2	2	1.45	13.2	11.9	inactive
78	SPON2	3	0.245	4.69	5.31	inactive
79	LIPJ	1	-0.801	-2.67	3.58	inactive
80	LIPJ	2	5.11	38.9	24.5	active
81	LIPJ	3	-1.24	-5.77	2.59	inactive
82	ATP1B3	1	-0.321	0.707	5.32	inactive
83	ATP1B3	2	-0.783	-2.54	3.85	inactive
84	ATP1B3	3	-0.527	-0.738	3.72	inactive
85	PDXP	1	0.325	5.25	6.5	inactive
86	PDXP	2	1.61	14.3	8.62	inactive
87	PDXP	3	-1.29	-6.11	1.66	inactive
